Here are results for 26 targets from the supplement of paper PMC10849652.

Amino acid sequences for entries named in this document (tags omitted). A change or cut given only in a name is not applied to a line headed by its entry.
UniProt Q9UPN4: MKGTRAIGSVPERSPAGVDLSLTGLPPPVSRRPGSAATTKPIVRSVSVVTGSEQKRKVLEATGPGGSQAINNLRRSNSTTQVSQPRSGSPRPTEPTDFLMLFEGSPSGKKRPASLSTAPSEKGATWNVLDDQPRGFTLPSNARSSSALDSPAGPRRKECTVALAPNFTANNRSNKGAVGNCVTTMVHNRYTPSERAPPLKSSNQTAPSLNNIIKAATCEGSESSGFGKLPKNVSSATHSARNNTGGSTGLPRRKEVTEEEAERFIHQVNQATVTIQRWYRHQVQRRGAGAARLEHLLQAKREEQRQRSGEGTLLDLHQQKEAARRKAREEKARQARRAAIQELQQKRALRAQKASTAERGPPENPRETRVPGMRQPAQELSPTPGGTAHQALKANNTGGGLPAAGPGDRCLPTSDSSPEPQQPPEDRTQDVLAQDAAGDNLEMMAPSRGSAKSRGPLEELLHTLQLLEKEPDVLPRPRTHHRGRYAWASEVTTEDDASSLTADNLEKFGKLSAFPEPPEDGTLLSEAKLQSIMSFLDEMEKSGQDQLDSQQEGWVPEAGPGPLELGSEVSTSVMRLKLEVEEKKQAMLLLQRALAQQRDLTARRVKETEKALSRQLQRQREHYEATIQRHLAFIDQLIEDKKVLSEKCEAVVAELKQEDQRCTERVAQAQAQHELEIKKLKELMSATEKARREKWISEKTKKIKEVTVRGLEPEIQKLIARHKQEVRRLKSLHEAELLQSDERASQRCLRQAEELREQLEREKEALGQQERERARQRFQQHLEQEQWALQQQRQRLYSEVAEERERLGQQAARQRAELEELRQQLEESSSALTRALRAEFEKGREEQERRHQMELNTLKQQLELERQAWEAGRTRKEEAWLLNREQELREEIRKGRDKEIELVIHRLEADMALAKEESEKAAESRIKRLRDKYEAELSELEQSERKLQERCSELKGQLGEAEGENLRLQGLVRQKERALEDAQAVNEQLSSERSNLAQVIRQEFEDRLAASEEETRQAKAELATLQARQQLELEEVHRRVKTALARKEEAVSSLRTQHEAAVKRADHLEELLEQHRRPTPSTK
UniProt P53567: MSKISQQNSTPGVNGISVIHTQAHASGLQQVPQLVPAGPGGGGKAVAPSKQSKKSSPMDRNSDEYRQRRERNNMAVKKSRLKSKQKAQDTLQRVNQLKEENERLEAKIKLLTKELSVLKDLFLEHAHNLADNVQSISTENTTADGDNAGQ
UniProt Q69YH5: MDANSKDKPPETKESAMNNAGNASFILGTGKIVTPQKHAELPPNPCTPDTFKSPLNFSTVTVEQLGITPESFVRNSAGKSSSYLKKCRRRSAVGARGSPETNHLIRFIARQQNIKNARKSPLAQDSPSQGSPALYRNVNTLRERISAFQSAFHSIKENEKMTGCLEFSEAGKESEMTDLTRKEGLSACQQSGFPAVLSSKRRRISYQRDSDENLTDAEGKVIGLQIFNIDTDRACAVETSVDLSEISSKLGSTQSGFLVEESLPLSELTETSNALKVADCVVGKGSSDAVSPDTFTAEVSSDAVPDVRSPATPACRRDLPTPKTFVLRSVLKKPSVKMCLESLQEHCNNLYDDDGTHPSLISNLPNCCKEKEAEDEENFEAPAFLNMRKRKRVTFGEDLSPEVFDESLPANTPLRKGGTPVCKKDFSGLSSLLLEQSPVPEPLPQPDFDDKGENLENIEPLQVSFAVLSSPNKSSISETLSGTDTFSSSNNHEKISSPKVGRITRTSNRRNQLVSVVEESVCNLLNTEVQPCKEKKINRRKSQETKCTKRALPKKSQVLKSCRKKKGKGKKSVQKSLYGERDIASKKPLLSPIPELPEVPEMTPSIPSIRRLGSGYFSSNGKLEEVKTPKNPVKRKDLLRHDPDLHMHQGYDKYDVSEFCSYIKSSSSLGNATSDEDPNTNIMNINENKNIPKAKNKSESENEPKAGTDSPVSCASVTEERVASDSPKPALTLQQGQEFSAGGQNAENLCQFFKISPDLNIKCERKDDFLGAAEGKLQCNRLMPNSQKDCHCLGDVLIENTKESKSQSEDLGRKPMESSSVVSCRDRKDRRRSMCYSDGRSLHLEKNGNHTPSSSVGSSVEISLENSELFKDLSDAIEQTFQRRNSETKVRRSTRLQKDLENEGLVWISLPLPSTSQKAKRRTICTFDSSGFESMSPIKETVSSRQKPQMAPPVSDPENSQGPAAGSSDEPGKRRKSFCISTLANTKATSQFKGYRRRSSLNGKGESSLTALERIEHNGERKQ
UniProt Q66GS9: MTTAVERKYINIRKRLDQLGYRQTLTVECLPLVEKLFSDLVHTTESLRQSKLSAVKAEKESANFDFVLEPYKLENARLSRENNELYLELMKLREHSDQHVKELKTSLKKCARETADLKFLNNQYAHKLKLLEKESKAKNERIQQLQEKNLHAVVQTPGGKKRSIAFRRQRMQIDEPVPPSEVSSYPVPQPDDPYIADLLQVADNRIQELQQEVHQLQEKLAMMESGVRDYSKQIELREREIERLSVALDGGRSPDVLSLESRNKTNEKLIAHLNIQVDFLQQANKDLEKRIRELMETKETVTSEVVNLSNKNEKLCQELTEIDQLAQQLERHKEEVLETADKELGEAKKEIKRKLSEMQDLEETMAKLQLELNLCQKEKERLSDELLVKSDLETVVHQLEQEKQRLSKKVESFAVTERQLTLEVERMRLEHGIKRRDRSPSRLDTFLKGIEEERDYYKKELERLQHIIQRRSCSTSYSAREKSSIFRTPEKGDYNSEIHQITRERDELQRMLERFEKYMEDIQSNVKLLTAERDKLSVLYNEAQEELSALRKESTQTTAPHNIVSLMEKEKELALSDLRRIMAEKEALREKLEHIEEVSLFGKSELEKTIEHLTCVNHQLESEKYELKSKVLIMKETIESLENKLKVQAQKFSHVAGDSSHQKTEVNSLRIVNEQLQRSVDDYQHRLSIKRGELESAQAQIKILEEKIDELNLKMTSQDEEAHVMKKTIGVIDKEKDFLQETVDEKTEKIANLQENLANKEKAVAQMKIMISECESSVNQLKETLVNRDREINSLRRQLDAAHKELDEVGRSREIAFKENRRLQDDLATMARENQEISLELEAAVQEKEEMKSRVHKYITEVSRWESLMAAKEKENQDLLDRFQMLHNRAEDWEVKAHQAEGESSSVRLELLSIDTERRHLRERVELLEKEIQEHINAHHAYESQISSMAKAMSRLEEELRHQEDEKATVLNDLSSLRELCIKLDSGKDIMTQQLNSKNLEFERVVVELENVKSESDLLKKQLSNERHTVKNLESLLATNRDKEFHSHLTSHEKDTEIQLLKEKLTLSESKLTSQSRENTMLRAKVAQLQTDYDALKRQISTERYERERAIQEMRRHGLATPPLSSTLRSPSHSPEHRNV
UniProt Q9HC77: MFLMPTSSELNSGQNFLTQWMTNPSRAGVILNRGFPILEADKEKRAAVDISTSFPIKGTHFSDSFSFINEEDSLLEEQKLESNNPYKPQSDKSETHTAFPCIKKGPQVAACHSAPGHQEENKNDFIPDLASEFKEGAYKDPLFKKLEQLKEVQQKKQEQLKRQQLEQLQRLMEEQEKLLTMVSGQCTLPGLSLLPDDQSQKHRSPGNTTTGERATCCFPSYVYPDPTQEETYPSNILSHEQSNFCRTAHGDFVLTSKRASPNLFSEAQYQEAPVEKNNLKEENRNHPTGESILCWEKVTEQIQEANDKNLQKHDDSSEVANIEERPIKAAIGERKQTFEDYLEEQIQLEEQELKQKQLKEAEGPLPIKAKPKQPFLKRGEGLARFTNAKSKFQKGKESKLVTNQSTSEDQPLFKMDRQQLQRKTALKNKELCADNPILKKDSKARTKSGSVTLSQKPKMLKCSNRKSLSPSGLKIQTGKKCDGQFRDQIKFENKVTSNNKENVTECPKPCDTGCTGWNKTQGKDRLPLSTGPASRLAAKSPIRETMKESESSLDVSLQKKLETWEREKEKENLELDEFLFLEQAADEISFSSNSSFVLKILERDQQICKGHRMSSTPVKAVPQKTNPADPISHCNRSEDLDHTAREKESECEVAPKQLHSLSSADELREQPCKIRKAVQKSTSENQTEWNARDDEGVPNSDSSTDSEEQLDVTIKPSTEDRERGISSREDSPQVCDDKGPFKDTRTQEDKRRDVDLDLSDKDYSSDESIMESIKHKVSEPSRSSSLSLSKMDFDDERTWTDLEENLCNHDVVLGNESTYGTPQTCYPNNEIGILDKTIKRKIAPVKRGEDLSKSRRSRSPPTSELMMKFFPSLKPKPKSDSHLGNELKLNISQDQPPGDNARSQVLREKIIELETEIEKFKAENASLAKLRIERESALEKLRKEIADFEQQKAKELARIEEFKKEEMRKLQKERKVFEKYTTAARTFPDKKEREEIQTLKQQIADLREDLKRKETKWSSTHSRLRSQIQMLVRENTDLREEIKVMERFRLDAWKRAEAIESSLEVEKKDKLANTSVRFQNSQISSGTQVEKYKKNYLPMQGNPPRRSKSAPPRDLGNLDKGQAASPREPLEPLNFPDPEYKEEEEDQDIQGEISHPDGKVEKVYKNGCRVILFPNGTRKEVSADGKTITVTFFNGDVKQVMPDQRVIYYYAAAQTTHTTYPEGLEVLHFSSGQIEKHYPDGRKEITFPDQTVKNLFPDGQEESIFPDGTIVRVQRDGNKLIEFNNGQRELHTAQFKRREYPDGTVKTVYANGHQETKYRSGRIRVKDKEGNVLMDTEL
UniProt Q7L2Z9: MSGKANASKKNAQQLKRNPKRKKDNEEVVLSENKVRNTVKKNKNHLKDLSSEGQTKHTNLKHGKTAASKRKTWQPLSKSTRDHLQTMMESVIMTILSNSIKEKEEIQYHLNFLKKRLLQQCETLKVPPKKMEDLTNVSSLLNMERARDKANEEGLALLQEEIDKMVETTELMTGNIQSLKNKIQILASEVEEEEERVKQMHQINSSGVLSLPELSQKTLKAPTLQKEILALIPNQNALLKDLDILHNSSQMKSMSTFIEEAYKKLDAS
UniProt A8MTT3: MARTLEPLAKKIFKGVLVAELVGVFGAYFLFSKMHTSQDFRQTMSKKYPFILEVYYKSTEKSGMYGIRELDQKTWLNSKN
UniProt Q711Q0: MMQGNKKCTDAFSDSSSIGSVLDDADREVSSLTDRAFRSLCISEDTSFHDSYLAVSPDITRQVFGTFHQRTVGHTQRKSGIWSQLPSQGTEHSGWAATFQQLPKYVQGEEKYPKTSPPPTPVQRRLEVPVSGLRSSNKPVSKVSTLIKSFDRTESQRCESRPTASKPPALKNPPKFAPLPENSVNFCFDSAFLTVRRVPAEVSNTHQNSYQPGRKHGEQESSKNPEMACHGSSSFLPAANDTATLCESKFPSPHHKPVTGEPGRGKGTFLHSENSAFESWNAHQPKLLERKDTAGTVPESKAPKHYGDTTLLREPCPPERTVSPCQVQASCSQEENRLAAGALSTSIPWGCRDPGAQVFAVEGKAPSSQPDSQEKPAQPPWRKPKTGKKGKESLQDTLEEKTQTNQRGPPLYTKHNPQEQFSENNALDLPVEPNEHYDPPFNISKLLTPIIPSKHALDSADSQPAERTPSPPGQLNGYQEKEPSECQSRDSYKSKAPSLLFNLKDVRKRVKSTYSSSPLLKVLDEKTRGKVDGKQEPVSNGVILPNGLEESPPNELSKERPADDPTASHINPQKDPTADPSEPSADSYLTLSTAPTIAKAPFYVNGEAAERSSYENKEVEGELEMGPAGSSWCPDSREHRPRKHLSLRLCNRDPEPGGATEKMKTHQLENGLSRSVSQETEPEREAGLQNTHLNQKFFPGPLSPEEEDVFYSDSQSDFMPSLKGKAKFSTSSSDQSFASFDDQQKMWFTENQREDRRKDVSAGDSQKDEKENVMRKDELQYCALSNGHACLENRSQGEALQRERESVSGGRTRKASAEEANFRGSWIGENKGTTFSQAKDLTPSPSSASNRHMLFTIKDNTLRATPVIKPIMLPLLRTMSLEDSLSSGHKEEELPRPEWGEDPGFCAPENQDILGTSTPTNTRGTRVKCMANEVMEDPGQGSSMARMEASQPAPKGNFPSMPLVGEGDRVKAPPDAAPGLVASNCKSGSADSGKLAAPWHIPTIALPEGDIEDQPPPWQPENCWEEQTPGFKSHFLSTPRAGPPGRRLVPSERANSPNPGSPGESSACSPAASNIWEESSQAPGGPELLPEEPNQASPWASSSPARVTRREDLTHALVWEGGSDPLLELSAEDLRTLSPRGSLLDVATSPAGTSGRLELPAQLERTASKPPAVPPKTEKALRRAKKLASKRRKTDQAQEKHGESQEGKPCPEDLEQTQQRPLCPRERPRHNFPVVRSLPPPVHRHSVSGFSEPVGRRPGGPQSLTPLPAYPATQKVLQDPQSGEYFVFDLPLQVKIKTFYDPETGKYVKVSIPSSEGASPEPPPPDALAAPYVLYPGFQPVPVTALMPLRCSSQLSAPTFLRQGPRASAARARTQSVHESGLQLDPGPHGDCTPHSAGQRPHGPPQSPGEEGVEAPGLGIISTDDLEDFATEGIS

The list shows a part of the results.

Holding throughout (test): log2 fold change, soluble protein after heating vs DMSO (PISA); higher = thermal stabilisation; K562 cells, 10 uM, 30 min; active = over 0.2 and 3.5 SD of the protein, either way, in both replicates (recomputed)
Compound in assay [1]: Cc1sc2c(c1C)C(c1ccc(Cl)cc1)=N[C@@H](CC(=O)OC(C)(C)C)c1nnc(C)n1-2
An outline of the steps: (§1)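 Values are thermal stability changes relative to control samples and are taken from duplicates. They are stated as log2 fold changes. Before quantification by TMTpro 16plex LC-MS/MS with equalised channel sums, K562 cells at 2×10^6 cells/mL were treated with 10 μM compound for 30 min, heated in aliquots for 3 min across 48°C-58°C, pooled, extracted in PBS with 0.5% NP-40 at 4°C, and centrifuged at 21,000xg for 90 min to give the soluble supernatant.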

Compound in assay [2]: CC1=C2C(=CC=C1)N=C(N(C2=O)C3=CC=CC=C3C)CN4C=NC5=C(N=CN=C54)N
Summed up:
as §1

Compound in assay [3]: CC1=C(SC2=C1C(=N[C@H](C3=NN=C(N32)C)CC(=O)N)C4=CC=C(C=C4)Cl)C
Summed up: as §1

Compound in assay [4]: c1ccc([C@@H]2C[C@H]2NC2CCNCC2)cc1
Summed up:
as §1

Compound in assay [5]: C1=CC=C(C=C1)[C@H](COC2=CC3=C(C=C2)NC(=O)N3)NC(=O)C4=CC=CN(C4=O)CC5=CC(=C(C=C5)F)F
Summed up:
as §1

In the case of CHMP2A (UniProt M0R1T5), the log2 fold change in assay [1] was inactive: -0.09.

With CDC42BPG (UniProt Q6DT37), in assay [2], the log2 fold change was inactive: -0.24.

With CEP131 (UniProt Q9UPN4), the results for the log2 fold change in assay [3], in assay [1] and in assay [4] were inactive: -0.048, inactive: 0.007 and inactive: -0.058, respectively.

Regarding CHD1L (UniProt Q86WJ1), in assay [2], the log2 fold change is inactive: 0.063.

With CEP170B (UniProt Q9Y4F5), the log2 fold change is inactive: 0.162 in assay [5] and inactive: -0.148 in assay [2].

For the target CFAP47 (UniProt Q6ZTR5), the log2 fold change in assay [5] was inactive: 0.068; in assay [2], inactive: 0.173.

CHFR (UniProt Q96EP1): the values for the log2 fold change in assay [2] and in assay [1] were inactive: 0.097 and inactive: 0.064, respectively.

For CEBPG (UniProt P53567), the log2 fold change is inactive: 0.272 in assay [3] and inactive: -0.014 in assay [4].

Turning to CDCA2 (UniProt Q69YH5), the log2 fold change in assay [3] was inactive: 0.035; in assay [2], inactive: 0.05; in assay [1], inactive: -0.003; in assay [4], inactive: -0.077.

In the case of CDNF (UniProt Q49AH0), in assay [2], the log2 fold change is inactive: -0.02.

Regarding CDC7 (UniProt O00311), the log2 fold change in assay [2] was inactive: -0.099.

For the target CHCHD5 (UniProt Q9BSY4), the log2 fold change is inactive: 0.026 in assay [5], inactive: 0.148 in assay [3] and inactive: -0.066 in assay [4].

Consider CEBPZ (UniProt Q03701), for which the log2 fold change in assay [3] was inactive: -0.172; in assay [2] it was inactive: -0.07; in assay [1], inactive: -0.561; in assay [4], inactive: -0.041.

With CENPV (UniProt Q7Z7K6), the log2 fold change is inactive: -0.403 in assay [3] and inactive: 0.199 in assay [4].

For the target CEP135 (UniProt Q66GS9), the log2 fold change was inactive: 0.025 in assay [5], inactive: 0.233 in assay [3] and inactive: 0.038 in assay [4].

For CENPJ (UniProt Q9HC77), the log2 fold change in assay [1] is inactive: 0.055.

For CENPQ (UniProt Q7L2Z9), the log2 fold change is inactive: -0.044 in assay [3], inactive: -0.035 in assay [1] and inactive: 0.053 in assay [4].

CHIC1 (UniProt Q5VXU3): the results for the log2 fold change in assay [5] and in assay [1] were inactive: -0.054 and inactive: -0.107, respectively.

For the target CDK5RAP2 (UniProt Q96SN8), the results for the log2 fold change in assay [5], in assay [2] and in assay [1] were inactive: 0.196, inactive: 0.036 and inactive: 0.064, respectively.

Turning to CEP152 (UniProt O94986), the figures for the log2 fold change in assay [5], in assay [2] and in assay [1] were inactive: -0.034, inactive: 0.024 and inactive: 0.142, respectively.

In the case of CDR2L (UniProt Q86X02), the log2 fold change in assay [3] is inactive: 0.052; in assay [2], inactive: 0.189; in assay [1], inactive: 0.066; in assay [4], inactive: 0.011.

For CEBPZOS (UniProt A8MTT3), the results for the log2 fold change in assay [5], in assay [2] and in assay [1] were inactive: -0.044, inactive: -0.105 and inactive: -0.022, respectively.

For the target CEFIP (UniProt Q711Q0), the log2 fold change in assay [5] is inactive: -0.096; in assay [2], inactive: 0.232.

For the target CEP97 isoform 2 (UniProt Q8IW35), the log2 fold change in assay [3] is inactive: -0.048; in assay [2], inactive: 0.071; in assay [1] it was inactive: -0.085; in assay [4], inactive: -0.042.

CDC5L (UniProt Q99459): the log2 fold change in assay [3] is inactive: -0.237; in assay [2], inactive: 0.131; in assay [1], inactive: -0.003; in assay [4], inactive: -0.014.

With CENPC (UniProt Q03188), the log2 fold change in assay [3] is inactive: -0.215; in assay [2], inactive: -0.111; in assay [4] it was inactive: -0.1.
